Assay results reported in patent publication US11440909B2, “10H-phenothiazine ferroptosis inhibitor as well as the preparative method and the use thereof” (CHENGDU HENGHAO INVESTMENT CO. LIMITED, priority 2018, dated 2022).

System: rat middle cerebral artery occlusion (MCAO) stroke model
Test: Rat middle cerebral artery occlusion (MCAO) stroke model, different doses
Format: in vivo
Procedure: By rat middle cerebral artery occlusion (MCAO) stroke model (also called cerebral ischemia model), the therapeutic effect of the compound of the present invention on ischemic stroke in SD rats at different doses was studied. Male SD rats were selected and induced anesthesia by 2-3.0% isoflurane. The middle cerebral artery was blocked by the thread plug method, resulting in rat ischemia model; the ischemic rats were placed at room temperature and kept their body temperature being 37° C. 60 minutes after ischemia onset, the rats were scored by Bederson neurobehavioral scale to determine whether the model was successfully made. 90 min after ischemia onset, the thread plug was pulled out for reperfusion. […] After 24 h of reperfusion, the animals were scored by NSS scale to evaluate neurological deficit. And then the animals were dissected, brains were collected and subjected to TTC stain. […] The percentage of the weight of the infarct tissue based on the weight of the whole brain was regarded as the infarct range (%), and the inhibition rate (%) of each drug treatment group was calculated based on the infarct range.

CCCCC1OC(=O)c2ccccc21 (centres unmarked) [Positive drug, butylphthalide, reference compound] showed a Whole brain weight (positive drug butylphthalide 10 mg/kg, tail vein injection, 24 h of reperfusion) of 1.446 ± 0.145 g and a Bederson score (positive drug group butylphthalide 10 mg/kg, scored 60 minutes after ischemia onset (before administration)) of 2.929 ± 0.267.
